Results deposited as PubChem BioAssay AID1259282 (Sanger Institute, 2017)

Aim: 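Kinase knock-downs that work with targeted colorectal cancer drugs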 (primary screen)
Cell system: DIFI human colorectal cancer cell line
Reagents: siRNA pool against human genes
Treatment: anchor drug at a mild dose (BYL719 1 µM, cetuximab 5 µg/ml, trametinib 10 nM) or DMSO vehicle; exposure time not given
Measured: 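Viability relative to non-targeting pool wells, replicate mean, in DMSO or low-dose BYL719, cetuximab or trametinib; robust z-score without drug; synergy score per drug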
Reading the numbers: robust z-score, knock-down alone: higher = more viable cells than typical knock-down; viability, knock-down alone: higher = more viable cells
Active means: 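Essential when the robust z-score of the knock-down without drug falls below -3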
Calls: active = essential (knock-down alone, z below -3); inactive = not essential
This is an unselected part of 794 deposited reagents. Over the whole deposit, 11 (1.4%) got an active call. 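Calls flag knock-downs that lower viability without drug; drug synergy appears only in the synergy scores; exposure time not stated.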 Entries without a mark were called inactive. No viability above 1 is reported: the scale is capped. Further read-outs or replicates are left out here. Not stated in the record: the amount of reagent, the time to read-out.

The opening 2 records, to show the layout:
MYLK2
- robust z-score, knock-down alone: -3.27 (active)
- viability, knock-down alone (fraction of control): 0.421

PLK2
- robust z-score, knock-down alone: 0.47
- viability, knock-down alone (fraction of control): 0.964

Main list, repeating the preview:
MYLK2
- robust z-score, knock-down alone: -3.27 (active)
- viability, knock-down alone (fraction of control): 0.421

PLK2
- robust z-score, knock-down alone: 0.47
- viability, knock-down alone (fraction of control): 0.964

ADPGK
- robust z-score, knock-down alone: -0.52
- viability, knock-down alone (fraction of control): 0.821

BLK
- robust z-score, knock-down alone: 0.715
- viability, knock-down alone (fraction of control): 1

DLG2
- robust z-score, knock-down alone: 0.715
- viability, knock-down alone (fraction of control): 1

MAPK13
- robust z-score, knock-down alone: 0.715
- viability, knock-down alone (fraction of control): 1

MAP3K2
- robust z-score, knock-down alone: 0.465
- viability, knock-down alone (fraction of control): 0.964

NPR2
- robust z-score, knock-down alone: 0.715
- viability, knock-down alone (fraction of control): 1

CDK12
- robust z-score, knock-down alone: 0.715
- viability, knock-down alone (fraction of control): 1

SLK
- robust z-score, knock-down alone: 0.69
- viability, knock-down alone (fraction of control): 0.996

PTGS1
- robust z-score, knock-down alone: 0.386
- viability, knock-down alone (fraction of control): 0.952

EFNA5
- robust z-score, knock-down alone: 0.715
- viability, knock-down alone (fraction of control): 1
